According to PubChem BioAssay AID588463 (National Center for Advancing Translational Sciences (NCATS), 2011):
Hit rate of the full screen: of about 1,200 compounds, about 15 (1%) were called active. About 7% were inconclusive and are not listed. Calls follow the shape of the dose curve; as a rule, active = well fitted activation curve with a large enough effect; inconclusive = small, poorly fitted or top-dose-only effect; inactive = flat fitted curve, though single readings scatter. This is one part of the list.

molecular target: Beta-2 adrenergic receptor (Homo sapiens) (UniProt P07550); assay: qHTS assay of beta-arrestin-biased ligands of beta2-adrenergic receptor: Hit Validation; settings: cell-based beta-arrestin recruitment to beta2AR; Potency: activation; series mostly up to 46.1 µM; activation: at the top concentration;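 also: plate controls were DMSO for no effect and maximal isoproterenol or metaproterenol response for full effect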
Excerpt: The concept of biased agonism is an emerging concept of molecular pharmacology which proposes that seven transmembrane receptors (7TMRs) or G protein-coupled receptors (GPCRs), exist in multiple signaling conformations and complexes and that ligands (either agonists or antagonists) can induce signaling biased responses for distinct signal transduction cascades.
Furthermore, accumulating evidence over the last decade has drawn attention to a novel function of beta-arrestins as signal transducers that scaffold various signaling molecules upon activation of 7TMRs. […] This beta-arrestin-biased signaling presumably leads to distinct physiological outcomes from those by G protein activation.
Additionally, the active receptor conformations which […] on this beta-arrestin signaling are likely different from those activating G protein signaling
The goal of this screening project will be to discover and optimize novel beta-arrestin-biased ligands for beta2-AR signaling. A luminescent cell-based assay for beta2-AR-mediated agonism, known as the Tango assay, has been validated in which ligand binding of a recombinant beta2-AR and subsequent recruitment of a recombinant beta-arrestin lead to the release of the transcriptional activator tTA, which upregulates transcription of a tTA-responsive luciferase gene.
NIH Molecular Libraries Probe Production Network [MLPCN]
NIH Chemical Genomics Center [NCGC]
PI: Bryan Roth (UNC) and Bob Lefkowitz (Duke)
NCGC Assay Protocol Summary:
Tango cells were dispensed into white, solid, tissue-culture-treated 1536-well plates at 1500 cells/well in DMEM, containing 1% fetal bovine serum (FBS). Then, 23 nL of compounds or DMSO were delivered to each well using a pin tool. Plates were incubated at 37 degrees C, 5% CO2 for 18 hr. Then 2.5 uL luminescent substrate mix (in-house prepared: 150 mM Tris-Cl, pH 7.6, 3 mM MgCl2, 1% Triton X-100, 5 mM DTT, 0.5 mM CoA, 0.15 mM ATP, 0.44 mM D-luciferin, final concentrations) was added to each well. Plates were then incubated for 15 minutes at room temperature, and subsequently measured on a ViewLux plate reader for luminescent signal using a clear filter with a 10 second exposure and 2x binning. The %Activity was determined from the corrected luminescence values.
Concentration-response curves were fitted to the signals arising from the resulting luminescence. The concentration-effect curves were then classified based on curve quality (r2), response magnitude and degree of measured activity, and compounds were subsequently categorized based on their curve class.
Keywords: biased agonism, beta2-AR, beta-arrestin, GPCR, 7TMR, Tango, luminescence, MLSMR, MLPCN, NIH Roadmap, qHTS, NCGC

activation, inactive:
O=[N+]([O-])c1ccc(C[n+]2cccc3ccc4cccnc4c32)cc1 -1.22%, Cc1ccc(Cn2nnc3c(=O)n(CC(=O)NCC4CCCO4)cnc32)cc1 (configuration not stated) -1.39%, CCc1cc2c(=O)c(-c3ccc4c(c3)OCCO4)coc2c(CN2CCCCC2C)c1O (configuration not stated) -0.531%, COc1ccc2c(C)nc(Nc3nc(C)c(C)c(=O)[nH]3)nc2c1 0.271%, O=C(NC(=S)N1CCN(Cc2ccccc2)CC1)c1ccco1 -1.8%, Cc1ccc(NC(=O)COC(=O)CN2C(=O)COc3ccccc32)cc1 -3.23%, CN1CCN(C(c2ccccn2)c2cc(Cl)c3cccnc3c2O)CC1 (configuration not stated) -2.19%, COc1ccc(NC(=O)c2cc(S(=O)(=O)N3CCc4ccccc43)cn2C)c(OC)c1 -3.34%, CCOc1ccccc1N=Nc1c(C)[nH]n(C(N)=S)c1=O -1.78%, Nc1c(Cl)ncnc1N/N=C/c1ccc2ccccc2n1 0.824%, CC1CCCN(C(=O)Cn2nnc(-c3ccc(F)cc3)n2)C1 (configuration not stated) -0.544%, COCCNC(=S)N/N=C(\C)c1ccc(Cl)c(Cl)c1 -1.6%, CCCCOc1ccc(C(O)(CCC)CCN2CCOCC2)cc1 (configuration not stated) -1.83%, CC[n+]1c(/C=C/N(C)c2ccccc2)oc2ccc(Cl)cc21 -2.68%, OC(C#Cc1ccccn1)c1cccs1 (configuration not stated) -0.841%, Cc1cccc(NC(=S)NNC(=O)CCn2cc(C)cn2)c1 -0.779%, COc1cc([N+](=O)[O-])c2nccnc2c1 -3.5%, O=C(Oc1cccc2cccnc12)c1ccc(N2C(=O)C3C4CCC(C4)C3C2=O)cc1 (configuration not stated) -7.3%, CCOc1ccc(/C=N/NC(=O)CN2CCCCC2)cc1OCC -1.64%, COc1cc(/C=N/NC(=O)c2cncc(Br)c2)cc([N+](=O)[O-])c1O 1.55%, O=C(O)CCc1ccc(-c2cccs2)o1 -10.8%, CN1CCN(C(=S)NC(=O)c2ccc(Br)cc2)CC1 -0.998%, O=C(NCC1CCCO1)c1ccc(CS(=O)(=O)c2ccc(Br)cc2)o1 (configuration not stated) -2.45%, S=C(NN=C1CCN(Cc2ccccc2)CC1)NC1CCCCC1 -2.86%, CNC(=S)N/N=C(\C)c1ccc(N2CCOCC2)cc1 -1.84%, O=C1CC(c2ccco2)CC2=C1C(c1ccccc1)n1nc(C(F)(F)F)nc1N2 (configuration not stated) 0.0396%, S=C(NCc1ccco1)Nc1ccccn1 -2.14%, COC(=O)c1c(/N=C/N(C)C)sc2c1CCN(c1ncc(C(F)(F)F)cc1Cl)C2 -3.04%, COc1cccc(/C=N/NC(=S)Nc2cccnc2)c1 -3.27%, Cc1cccc(NC(=S)NC(=O)c2cccs2)n1 -2.07%, NC(=S)N/N=C1\CCOc2ccc(F)cc21 -1.4%, COc1ccc(Oc2nc(-c3ccncc3)nc3ccccc23)cc1 -2.03%, Cc1cccc(NC(=O)CSc2nnnn2-c2cccnc2)c1 -1.67%, Cc1ccc2c(c1)[C@H]1[C@H](CO2)[C@H](c2ccccc2)[C@]2(C)C(=O)Nc3ccccc3C(=O)N12 -1.64%, CCOc1ccccc1CNc1ccc(O)cc1 -1.41%, Oc1[nH]c2ccc(Br)cc2c1N=NC(=S)NCC1CCCO1 (configuration not stated) -2.12%, C=CCNC(=S)N/N=C(\C)c1cccc(OC)c1 -1.3%, COc1ccc(NC(=S)N2CCc3ccccc3C2)cc1 -0.466%, CN1CCN(Cc2cc(COCc3ccccc3)c3cccnc3c2O)CC1 -0.456%, CCOC(=O)C1(O)CC(C)=NN1C(=O)c1cccc(Cl)c1 (configuration not stated) -1.46%, CCc1cc2c(SCC(=O)Nc3ccc(Cl)cn3)ncnc2s1 -1.91%, Cc1ccc(/C=N/n2cc(-c3ccccc3)[nH]c2=S)s1 4.44%, O=C1CCCC2=C1C(c1ccc3c(c1)OCO3)c1c([nH]n(-c3ccccc3)c1=O)N2 (configuration not stated) -0.803%, COc1cccc(NC(=S)N/N=C2\CC(C)(C)Oc3ccc(O)cc32)c1 -2.24%, CCN(CC)C(=S)SCC(=O)c1ccc(F)cc1 -1.73%, CCCCOC(=O)c1cc(Cl)c(O)c(OC)c1 -2.62%, CN(CC(=O)Nc1ccccc1Cl)C(=O)COC(=O)c1nc(Cl)c(Cl)c(Cl)c1Cl -4.27%, CNC(=S)N/N=C1\CC(c2ccccc2)Oc2ccccc21 (configuration not stated) -2.26%, C=CCNC(=S)N/N=C(\C)c1cccnc1 -2.35%, Cc1ccc(NC(=O)C(Nc2cccc(C)c2)c2ccccc2)cc1 (configuration not stated) 0.413%, CCOc1ccc(/C=N/n2cc(-c3ccccc3)[nH]c2=S)cc1 -4.93%, CCCC(=O)N(c1ccc(F)cc1)C1C=CS(=O)(=O)C1 (configuration not stated) -3.49%, COc1ccc(/C=C/c2ccc3cccc(O)c3n2)c(OC)c1OC 6.27%, Cc1ccc(SCC(=O)NC(=O)NCc2ccccc2)c(C)c1 -0.256%, CN(C)CCn1c2c(c(SCC(=O)NCc3ccccc3)nc1=O)CCCC2 -5.86%, Fc1ccc(NC(=S)N/N=C/c2ccc(F)c(F)c2)cc1 -2.99%, CCCCn1c(N)c(N(CCC(C)C)C(=O)CSc2nncn2-c2ccccc2)c(=O)[nH]c1=O -0.737%, COc1ccccc1NC(=O)COC(=O)c1ccc2ccccc2n1 -2.91%, Cc1cc(N2Cc3ccccc3C2)ccc1C=O -1.41%, CCCCC(=O)N1CCCC(c2nc(-c3cccc(OC)c3)no2)C1 (configuration not stated) -1.86%, S=c1ccc2ccccc2[nH]1 -2.65%, O=C1c2cccc3c([N+](=O)[O-])ccc(c23)C(=O)N1c1ccccn1 -3.16%, C[C@H](NC(=O)c1ccccc1)C(=O)OCC(=O)Nc1ccc2c(c1)OCO2 -2.24%, CCOC(=O)C1CCN(C(=O)c2ccccc2NS(=O)(=O)c2ccc(F)c(F)c2)CC1 -3.57%, CNC(=S)N/N=C/c1ccc(N2CCOCC2)s1 -2.87%, CC(C)Cn1c(Cc2ccccc2)n[nH]c1=S -4.23%, COc1ccc(NC(=O)Nc2sc(=S)n(C)c2C)cc1 -2.08%, O=C(CSc1nccn1Cc1ccc(F)cc1)NC1CCCC1 -2.69%, COC(=O)c1ccc(C(=O)OC)c(NC(=O)CSc2cccc[n+]2[O-])c1 -1.21%, Cc1ccc(N/C=C/C(=O)c2ccccc2)cc1C -1.95%, O=C(Oc1c(CN2CCOCC2)cc(Cl)c2cccnc12)c1ccccc1 2.56%, COc1ccc(CCn2c(N)c(C(=O)NCc3ccco3)c3nc4ccccc4nc32)cc1 -2.04%, O=C(NC(=S)Nc1cccnc1Cl)c1ccc(Cl)cc1 -2.22%, COc1ccc(NC(=S)Nc2ccccn2)c(OC)c1 -1.86%, CCCNC(=O)Cn1cnc2sc(C(=O)Nc3ccc4c(c3)OCO4)c(C)c2c1=O -0.332%, CCN1C(=O)C(CC(=O)Nc2ccc(OC)cc2)N(CCN2CCOCC2)C1=S (configuration not stated) -0.784%, COc1ccc(C2C(C#N)=C(N)Oc3cc(N)ccc32)cc1OC (configuration not stated) -1.87%, Cc1cc(C)nc(S/C=C/C(=O)c2ccccc2F)n1 -2.31%, COc1ccc(Nc2cc(Nc3cccc(OC)c3)ncn2)cc1 -2.11%, CN(C)/C=N/S(=O)(=O)c1ccc(Cl)c(Cl)c1 -2.48%, COCCNC(=S)NN=C1CCCCC1 -1.74%, CC1CCN(c2c(NCc3ccc(C(=O)NCCc4ccc(Cl)cc4)cc3)c(=O)c2=O)CC1 -2.29%, CCN1CCN(C(=S)NC(=O)c2cccc(Br)c2)CC1 -2.87%, N=C1SCC(=O)N1c1ncc(Cc2ccccc2Cl)s1 -2.74%, Cc1ccc(NC(=O)CSc2cccc3cccnc23)c(C)c1 -3.6%, O=[N+]([O-])c1ccc(Sc2cccc3cccnc23)c([N+](=O)[O-])c1 -2.15%, NC(=S)Nc1nc2ccccc2s1 -1.8%, CCOc1ccc(NC(=S)NC(=O)c2ccco2)cc1 -0.636%, CCCNC(=O)COc1ccc2c(=O)c(Oc3ccccc3F)coc2c1 -3.11%, Oc1ccc(N=Cc2ccc(-c3cccs3)s2)cc1 -4.12%, Cc1ccc(-c2csc3nc[nH]c(=S)c23)cc1 -2.6%, CCOC(=O)c1c(C)[nH]c(N=Nc2ccc(C)cc2C)c1C -10.2%, O=C1C(Cc2ccc(Br)cc2)SC(=Nc2ccccc2)N1c1ccccc1 (configuration not stated) -1.47%, C=CC[n+]1c(-c2ccc(OC)c(OC)c2)csc1NNC(=O)Nc1ccccc1 -3.45%, Cc1ccc(/C(N)=N/OC(=O)c2ccc(Cl)cc2Cl)cc1 -2.63%, NNC(=S)NCc1ccco1 -2.62%, CC(=O)CC1OC(=O)C(Br)=C1NCc1ccccc1 (configuration not stated) -1.18%, COc1ccc(C(=O)Nc2ccc(OCc3ccccc3)cc2)cc1[N+](=O)[O-] -1.39%, Cc1cccc(NC(=O)c2cccs2)n1 -2.92%, NC(=S)n1[nH]c(-c2ccc([N+](=O)[O-])cc2)c(N=Nc2ccc(Cl)cc2)c1=O -4.16%, Cc1ccc2nc(C)c(C(=O)N/N=C/c3cccs3)n2c1 -1.53%, Cn1c(/C=C/c2ccc([N+](=O)[O-])o2)nc2ccccc2c1=O -2.87%, NNc1ccc(Cl)nn1 -2.76%, S=c1nc(-c2ccccc2)[nH]c2ccccc12 -2.34%, COc1ccc(NC(=S)NC(=O)c2ccc3c(c2)OCCO3)cc1 -3.42%, Cc1ccc(N(Cc2cc(=O)[nH]c3ccccc23)C(=O)c2ccco2)cc1 -1.04%, O=C(CNC(=O)c1ccccc1F)Nc1ccc2c(c1)OCO2 -3.21%, CCOC(=O)CSc1cccc2cccnc12 -2.99%, COc1ccc2c(C)nc(Nc3nc(C)cc(C)n3)nc2c1 -2.67%, C/C(=N/OC(=O)c1c(-c2c(F)cccc2Cl)noc1C)c1cnccn1 -2.15%, Cc1cc(C)c(NC(=S)NC(NC(=O)c2ccccc2)C(Cl)(Cl)Cl)c(C)c1 (configuration not stated) 0.912%, Cc1cc(-c2n[nH]c(=S)n2/N=C/C(Cl)=C/c2ccccc2)n[nH]1 -3.11%, O=C(O)c1ccc(Oc2cc(Oc3ccc(C(=O)O)cc3)cc([N+](=O)[O-])c2)cc1 -3.75%, CC(C)c1ccc(NC(=S)Nc2ccc3cn[nH]c3c2)cc1 -3.41%, OCCN1CCN(c2ncnc3ccc(Br)cc23)CC1 -4.66%, Nc1c(N(CCC2=CCCCC2)C(=O)Cc2ccc(F)cc2)c(=O)[nH]c(=O)n1Cc1ccccc1 -0.0404%, O=C(O)c1ccccc1C(=O)Nc1ccc(-c2csc(-c3ccccc3)n2)cc1 0.433%
